The record followed here is PMC3366976, “Tuning the Drug Efflux Activity of an ABC Transporter in vivo by in vitro Selected DARPin Binders” (PLoS ONE, 2012).

Results are given in words; binding and its absence hold for the method and conditions named. Sequences can lack the tags named with a protein.

This assay concerns the target biotinylated nucleotide binding domain of LmrD with N-terminal Avi-tag (bLmrD-NBD_(AviN)) (Lactococcus lactis) (UniProt A2RI38). Briefly: SEC; purified NBD of LmrD from E. coli on SEC (Figure S1F); both purified. (SEC sorts molecules by how far they enter the pores of the column.)

B1: biotinylated nucleotide binding domain of LmrD with N-terminal Avi-tag (bLmrD-NBD_(AviN)) (domain or fragment, UniProt A2RI38 424-664)
chain: GIQIENLDFEYLPGKPVLKKVNIDVKKGQMVALVGPTGSGKTTVMNLMNRFYDVNGGAIKFDGTDIREFDLDSLRSNVGIVLQESVLFDGTIADNIKFGKPNATQEEIETVAKTTHIHEFIESLPDKYETHVSDDESVFSVGQKQQISIARTILTNPELLILDEATSNVDTVTEEQIQWAMEAAIAGRTSFVIAHRLKTILNADKIVVLKDGEVIEEGNHHELVAQGGFYSELYHNQFVFE
modifications: biotin on the Avi-tag (enzymatic)
In the case of B1, the binding entry is “no binding”.
